We go through 20 targets from the supplement of paper PMC11732987, “Enantioselective OTUD7B fragment discovery through chemoproteomics screening and high-throughput optimisation” (Communications Chemistry, 2025).

Chains of the proteins cited; added tags and fusions are not shown. Lines headed by an entry give the natural chain unless they say otherwise; changes in a name come on top. Residues count along the entry.
UniProt P19367, 255-274: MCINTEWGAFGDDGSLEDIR
UniProt P08236: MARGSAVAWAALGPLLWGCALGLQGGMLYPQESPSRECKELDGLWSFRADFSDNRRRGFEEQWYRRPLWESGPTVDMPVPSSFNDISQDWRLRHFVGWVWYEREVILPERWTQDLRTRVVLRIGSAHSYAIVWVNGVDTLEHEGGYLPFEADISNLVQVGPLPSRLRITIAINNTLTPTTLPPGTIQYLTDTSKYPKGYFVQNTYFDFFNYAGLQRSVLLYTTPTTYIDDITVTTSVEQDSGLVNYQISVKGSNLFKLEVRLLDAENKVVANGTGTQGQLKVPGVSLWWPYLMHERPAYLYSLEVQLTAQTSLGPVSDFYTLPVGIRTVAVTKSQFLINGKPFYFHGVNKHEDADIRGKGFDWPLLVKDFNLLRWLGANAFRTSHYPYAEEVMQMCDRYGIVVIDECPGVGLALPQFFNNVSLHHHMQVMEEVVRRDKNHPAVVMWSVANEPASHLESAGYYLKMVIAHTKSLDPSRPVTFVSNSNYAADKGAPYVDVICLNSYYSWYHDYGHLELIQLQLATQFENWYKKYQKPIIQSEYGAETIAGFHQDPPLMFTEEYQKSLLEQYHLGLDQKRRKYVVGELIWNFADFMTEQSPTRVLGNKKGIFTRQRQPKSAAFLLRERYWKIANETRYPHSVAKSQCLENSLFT
UniProt Q9ULT8: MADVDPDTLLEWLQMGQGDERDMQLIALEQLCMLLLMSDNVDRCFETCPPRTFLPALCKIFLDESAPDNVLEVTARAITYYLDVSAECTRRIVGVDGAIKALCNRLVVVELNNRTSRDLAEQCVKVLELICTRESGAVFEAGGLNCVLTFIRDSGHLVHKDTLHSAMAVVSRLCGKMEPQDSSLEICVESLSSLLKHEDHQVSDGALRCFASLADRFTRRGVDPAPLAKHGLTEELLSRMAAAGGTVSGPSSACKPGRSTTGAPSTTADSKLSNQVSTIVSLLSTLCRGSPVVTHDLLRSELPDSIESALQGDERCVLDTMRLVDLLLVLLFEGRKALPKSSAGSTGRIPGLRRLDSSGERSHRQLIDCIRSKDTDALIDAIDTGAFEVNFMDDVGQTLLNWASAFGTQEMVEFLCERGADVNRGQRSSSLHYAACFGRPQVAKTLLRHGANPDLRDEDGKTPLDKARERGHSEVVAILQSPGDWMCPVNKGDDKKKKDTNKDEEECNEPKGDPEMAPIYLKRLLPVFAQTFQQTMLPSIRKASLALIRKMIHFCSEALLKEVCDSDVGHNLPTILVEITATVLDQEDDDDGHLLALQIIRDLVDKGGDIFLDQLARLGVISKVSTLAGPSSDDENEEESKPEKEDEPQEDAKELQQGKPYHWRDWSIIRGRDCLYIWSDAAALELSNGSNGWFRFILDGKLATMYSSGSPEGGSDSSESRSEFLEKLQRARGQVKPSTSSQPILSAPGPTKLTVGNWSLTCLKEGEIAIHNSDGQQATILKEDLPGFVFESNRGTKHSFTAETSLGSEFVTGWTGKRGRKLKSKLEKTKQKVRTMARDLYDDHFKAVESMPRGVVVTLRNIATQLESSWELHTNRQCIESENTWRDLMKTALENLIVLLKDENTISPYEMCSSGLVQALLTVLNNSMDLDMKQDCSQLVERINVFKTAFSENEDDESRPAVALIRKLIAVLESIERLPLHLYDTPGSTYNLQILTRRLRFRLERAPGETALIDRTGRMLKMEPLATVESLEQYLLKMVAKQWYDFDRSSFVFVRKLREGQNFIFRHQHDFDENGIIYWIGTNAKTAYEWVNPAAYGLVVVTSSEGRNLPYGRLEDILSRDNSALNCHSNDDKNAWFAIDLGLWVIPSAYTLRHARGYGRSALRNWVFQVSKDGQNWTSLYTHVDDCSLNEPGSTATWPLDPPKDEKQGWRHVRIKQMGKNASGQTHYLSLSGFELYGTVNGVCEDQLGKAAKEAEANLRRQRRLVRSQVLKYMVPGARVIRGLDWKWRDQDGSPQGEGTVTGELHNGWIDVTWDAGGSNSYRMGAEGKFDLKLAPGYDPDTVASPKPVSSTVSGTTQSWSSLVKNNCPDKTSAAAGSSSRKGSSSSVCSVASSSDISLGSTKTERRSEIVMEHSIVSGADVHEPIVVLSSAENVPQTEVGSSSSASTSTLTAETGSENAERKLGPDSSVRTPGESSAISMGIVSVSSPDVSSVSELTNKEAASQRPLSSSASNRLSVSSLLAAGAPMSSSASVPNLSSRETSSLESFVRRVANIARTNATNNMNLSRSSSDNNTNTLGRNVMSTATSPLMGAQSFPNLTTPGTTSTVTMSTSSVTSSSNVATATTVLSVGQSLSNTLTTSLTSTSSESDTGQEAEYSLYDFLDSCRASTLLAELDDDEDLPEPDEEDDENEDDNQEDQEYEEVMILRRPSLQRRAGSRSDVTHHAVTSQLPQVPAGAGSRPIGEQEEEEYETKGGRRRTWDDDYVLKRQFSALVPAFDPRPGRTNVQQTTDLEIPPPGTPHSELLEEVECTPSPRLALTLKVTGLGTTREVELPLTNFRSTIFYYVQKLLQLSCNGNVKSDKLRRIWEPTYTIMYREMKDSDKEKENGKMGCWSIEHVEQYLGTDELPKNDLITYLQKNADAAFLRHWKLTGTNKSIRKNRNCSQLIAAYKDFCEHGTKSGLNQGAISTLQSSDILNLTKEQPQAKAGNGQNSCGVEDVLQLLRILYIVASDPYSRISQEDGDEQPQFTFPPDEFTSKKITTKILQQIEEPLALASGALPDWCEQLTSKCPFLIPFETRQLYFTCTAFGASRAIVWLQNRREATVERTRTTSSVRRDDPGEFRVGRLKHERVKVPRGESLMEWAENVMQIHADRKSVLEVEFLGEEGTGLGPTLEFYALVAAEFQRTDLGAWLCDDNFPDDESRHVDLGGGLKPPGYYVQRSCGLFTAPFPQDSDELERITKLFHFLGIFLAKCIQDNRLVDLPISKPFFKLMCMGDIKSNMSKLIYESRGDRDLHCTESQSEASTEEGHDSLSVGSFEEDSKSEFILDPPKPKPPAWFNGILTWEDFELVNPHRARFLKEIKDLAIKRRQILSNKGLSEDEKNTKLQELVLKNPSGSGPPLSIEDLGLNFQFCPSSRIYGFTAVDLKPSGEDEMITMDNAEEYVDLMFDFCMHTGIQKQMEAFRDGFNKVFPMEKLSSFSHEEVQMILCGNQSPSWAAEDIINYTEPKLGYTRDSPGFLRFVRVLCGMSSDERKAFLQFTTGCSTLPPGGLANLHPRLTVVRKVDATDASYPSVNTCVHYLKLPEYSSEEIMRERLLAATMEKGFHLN
UniProt P28161: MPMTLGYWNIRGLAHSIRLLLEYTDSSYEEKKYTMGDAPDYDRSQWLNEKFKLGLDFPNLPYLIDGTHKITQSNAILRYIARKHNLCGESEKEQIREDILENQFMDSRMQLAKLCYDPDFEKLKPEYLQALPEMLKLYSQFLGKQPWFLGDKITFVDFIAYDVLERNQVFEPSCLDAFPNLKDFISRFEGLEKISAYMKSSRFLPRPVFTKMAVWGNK
UniProt P13984: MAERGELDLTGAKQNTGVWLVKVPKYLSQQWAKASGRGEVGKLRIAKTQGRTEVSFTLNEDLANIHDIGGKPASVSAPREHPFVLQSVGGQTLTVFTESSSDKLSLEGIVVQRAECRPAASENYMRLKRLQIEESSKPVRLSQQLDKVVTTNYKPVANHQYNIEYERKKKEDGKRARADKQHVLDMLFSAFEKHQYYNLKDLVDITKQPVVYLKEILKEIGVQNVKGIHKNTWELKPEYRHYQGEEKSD
UniProt O75330: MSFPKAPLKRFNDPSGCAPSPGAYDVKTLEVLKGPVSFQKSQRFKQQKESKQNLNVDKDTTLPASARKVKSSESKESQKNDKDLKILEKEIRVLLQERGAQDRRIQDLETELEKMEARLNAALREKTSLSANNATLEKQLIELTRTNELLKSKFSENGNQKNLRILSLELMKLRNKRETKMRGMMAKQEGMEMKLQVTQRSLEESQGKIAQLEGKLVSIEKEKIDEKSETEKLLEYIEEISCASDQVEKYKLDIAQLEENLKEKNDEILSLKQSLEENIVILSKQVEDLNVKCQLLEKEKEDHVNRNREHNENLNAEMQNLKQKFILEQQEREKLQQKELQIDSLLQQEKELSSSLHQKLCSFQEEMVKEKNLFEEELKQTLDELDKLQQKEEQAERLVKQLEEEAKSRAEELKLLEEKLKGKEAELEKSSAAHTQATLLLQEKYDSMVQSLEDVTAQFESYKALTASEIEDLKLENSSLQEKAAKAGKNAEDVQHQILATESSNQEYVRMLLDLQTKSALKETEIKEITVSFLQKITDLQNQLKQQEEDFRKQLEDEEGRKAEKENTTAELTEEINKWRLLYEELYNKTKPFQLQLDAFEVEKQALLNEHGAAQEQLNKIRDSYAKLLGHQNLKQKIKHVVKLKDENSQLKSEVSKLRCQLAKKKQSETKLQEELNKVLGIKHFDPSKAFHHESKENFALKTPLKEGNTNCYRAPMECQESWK
UniProt Q9P2D3: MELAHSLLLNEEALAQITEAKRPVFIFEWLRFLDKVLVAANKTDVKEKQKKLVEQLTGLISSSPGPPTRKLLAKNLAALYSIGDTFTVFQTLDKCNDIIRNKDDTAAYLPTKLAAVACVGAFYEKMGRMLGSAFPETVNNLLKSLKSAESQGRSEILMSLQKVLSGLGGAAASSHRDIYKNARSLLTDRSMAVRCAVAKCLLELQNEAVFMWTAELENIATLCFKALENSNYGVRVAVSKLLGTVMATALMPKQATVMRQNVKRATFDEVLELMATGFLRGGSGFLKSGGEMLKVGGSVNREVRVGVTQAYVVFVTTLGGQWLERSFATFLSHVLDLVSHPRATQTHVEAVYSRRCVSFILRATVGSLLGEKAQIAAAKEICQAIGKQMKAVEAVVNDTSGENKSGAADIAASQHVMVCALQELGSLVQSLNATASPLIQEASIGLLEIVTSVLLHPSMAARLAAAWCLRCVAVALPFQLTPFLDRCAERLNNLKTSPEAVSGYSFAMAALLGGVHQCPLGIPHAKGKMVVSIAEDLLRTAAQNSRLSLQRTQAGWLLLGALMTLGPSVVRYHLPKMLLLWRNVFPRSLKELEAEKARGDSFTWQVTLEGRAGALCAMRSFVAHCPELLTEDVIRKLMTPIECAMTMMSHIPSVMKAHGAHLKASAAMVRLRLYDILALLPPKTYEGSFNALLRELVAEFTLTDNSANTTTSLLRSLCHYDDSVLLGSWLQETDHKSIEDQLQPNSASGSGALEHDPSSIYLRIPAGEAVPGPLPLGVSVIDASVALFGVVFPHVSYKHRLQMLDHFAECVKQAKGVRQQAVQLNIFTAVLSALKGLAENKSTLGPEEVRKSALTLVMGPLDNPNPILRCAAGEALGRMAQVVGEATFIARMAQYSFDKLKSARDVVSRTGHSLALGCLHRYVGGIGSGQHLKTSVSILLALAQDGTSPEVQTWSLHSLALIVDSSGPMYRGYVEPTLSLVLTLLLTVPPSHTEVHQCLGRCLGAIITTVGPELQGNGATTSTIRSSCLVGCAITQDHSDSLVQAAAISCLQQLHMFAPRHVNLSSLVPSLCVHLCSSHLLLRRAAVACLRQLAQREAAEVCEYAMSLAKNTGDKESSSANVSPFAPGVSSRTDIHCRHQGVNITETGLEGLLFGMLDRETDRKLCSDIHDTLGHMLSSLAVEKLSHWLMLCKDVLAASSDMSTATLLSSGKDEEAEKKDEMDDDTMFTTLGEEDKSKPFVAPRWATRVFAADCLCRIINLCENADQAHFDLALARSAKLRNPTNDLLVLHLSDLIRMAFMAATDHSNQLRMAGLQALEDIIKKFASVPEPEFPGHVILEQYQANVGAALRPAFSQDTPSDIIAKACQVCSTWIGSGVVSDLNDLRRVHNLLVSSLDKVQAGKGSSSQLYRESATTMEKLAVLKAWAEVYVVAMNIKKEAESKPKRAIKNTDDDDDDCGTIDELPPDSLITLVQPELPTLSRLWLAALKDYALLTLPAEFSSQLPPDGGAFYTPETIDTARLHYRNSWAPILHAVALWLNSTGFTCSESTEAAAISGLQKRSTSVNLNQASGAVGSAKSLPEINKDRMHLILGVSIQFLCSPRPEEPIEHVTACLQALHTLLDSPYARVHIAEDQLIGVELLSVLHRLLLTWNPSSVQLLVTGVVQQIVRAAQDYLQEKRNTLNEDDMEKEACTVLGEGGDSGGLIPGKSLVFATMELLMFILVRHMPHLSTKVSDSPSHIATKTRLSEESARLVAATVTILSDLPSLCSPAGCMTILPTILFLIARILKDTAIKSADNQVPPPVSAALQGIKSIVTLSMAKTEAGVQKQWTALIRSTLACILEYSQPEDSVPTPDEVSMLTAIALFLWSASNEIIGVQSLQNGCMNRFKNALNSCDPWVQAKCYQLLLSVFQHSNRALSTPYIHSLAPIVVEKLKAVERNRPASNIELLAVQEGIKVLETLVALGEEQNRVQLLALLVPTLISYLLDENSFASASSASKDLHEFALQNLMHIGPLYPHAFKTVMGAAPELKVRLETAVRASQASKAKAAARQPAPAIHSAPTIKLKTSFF

Some of the results follow. The data scatter; read single values as rough.

Compound in the assay: ClCC(=O)N[C@H]1CCCc2ccccc12
Briefly: log2 mean competition ratio of IA-DTB cysteine labelling (DMSO/compound) (log2 ratio); higher = stronger cysteine engagement by compound. The settings on record: 200 µM; treatment time: 4 h; cell line lysate: HEK293T. The protocol: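 IA-DTB competitive cysteine chemoproteomics in HEK293T RIPA lysate. Lysates were treated with compound 29 or 30 at 50 or 200 µM for 4 h, then IA-DTB (500 µM, 1 h), trypsin-digested, NeutrAvidin-enriched and analysed by diaPASEF. Competition ratio = intensity DMSO / intensity compound (n=4 treated, n=64 DMSO); binding: mean log2 CR ≥ 1 and p ≤ 0.05 plus QC filters. Target is the cysteine site.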
Consider H3-7 C111, for which the “log2 mean competition ratio” value worked out at 0.0734.
The result for HK1 C886 (UniProt P19367) reads -0.11.
The result for HEXB C360 (UniProt P07686) reads -0.115.
As for GUSB C644 (UniProt P08236), the “log2 mean competition ratio” value came to 0.414.
In the case of HECTD1 C123 (UniProt Q9ULT8) it was -0.0989; in that of HGS C75 (UniProt O14964), -0.29.
As to GSTM2 C115 (UniProt P28161), the “log2 mean competition ratio” value was -0.128.
As to HOOK1 C432 (UniProt Q9UJC3), the “log2 mean competition ratio” value was -0.126.
The result for GSTM3 C119 (UniProt P21266) reads -0.0984.
With GTF2F2 C116 (UniProt P13984), the “log2 mean competition ratio” value was found to be 0.0312.
As to HK1 C834 (UniProt P19367), the “log2 mean competition ratio” value was -0.192.
On to HAPLN3 C233, for which the “log2 mean competition ratio” value came out at 0.365.
In the case of HIP1 C63 (UniProt O00291), the “log2 mean competition ratio” value is -0.0196.
In the case of GTF3C1 C179 (UniProt Q12789) it was -0.061; in that of HMMR C712 (UniProt O75330), 0.209.
The result for HEATR5B C870 (UniProt Q9P2D3) reads 0.42; that for HK1 C256 (UniProt P19367), 0.43.
For HCFC1 C1872 (UniProt P51610), the “log2 mean competition ratio” value came out at 0.231.
The result for HOXB13 C211 reads 0.369; that for HECTD1 C1995 (UniProt Q9ULT8), 0.13.
